This experiment concerns the target 人CSF-1R-his重组蛋白 (human CSF-1R-his recombinant protein) (human) (UniProt P07333). The experiment is described as follows: BLI (ForteBio).

Amino acid sequences for entries named in this document (tags omitted). Residues count along the entry.
UniProt P07333, residues 20-512: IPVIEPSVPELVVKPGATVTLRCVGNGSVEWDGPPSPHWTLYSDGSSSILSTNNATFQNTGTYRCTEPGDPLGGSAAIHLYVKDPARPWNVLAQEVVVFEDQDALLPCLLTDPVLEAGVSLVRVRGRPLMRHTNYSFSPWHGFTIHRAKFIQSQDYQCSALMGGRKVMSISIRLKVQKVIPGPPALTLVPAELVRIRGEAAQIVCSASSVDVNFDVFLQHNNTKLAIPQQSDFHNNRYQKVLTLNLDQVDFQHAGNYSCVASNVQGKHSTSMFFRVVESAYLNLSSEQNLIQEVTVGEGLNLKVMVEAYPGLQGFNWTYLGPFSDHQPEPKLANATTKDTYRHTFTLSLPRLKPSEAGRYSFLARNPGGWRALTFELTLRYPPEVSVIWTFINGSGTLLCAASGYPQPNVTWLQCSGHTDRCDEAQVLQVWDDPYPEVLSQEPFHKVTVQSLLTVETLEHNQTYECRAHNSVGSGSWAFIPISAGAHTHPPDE

No constants are given. Whether binding was seen depends on the method and setting. Some entries that bind do so weakly or less than the wild type.

B1: hz73 (antibody, V domains shown)
VH: EVQLVQSGAEVKKPGASVKVSCKASGYTFTDYNMDWVRQAPGQGLEWMGDIIPNYDSATYNQKFKGRVTMTRDTSTSTVYMELSSLRSEDTAVYYCARKGGGYVNWYFDVWGQGTTVTVSS
VL: DIQMTQSPSSLSASVGDRVTITCHASQNINVWLSWYQQKPGKAPKLLIYKASNLHTGVPSRFSGSGSGTDFTFTISSLQPEDIATYYCQQGESYPYTFGGGTKVEIK
Turning to B1, the binding entry is “binds”.

B2: ch73 (antibody, human IgG1, kappa, V domains shown)
VH: EVQLQQFGAELVKPGASVKISCKASGYTFTDYNMDWMKQSHGKSLEWIGDIIPNYDSATYNQKFKGKATLTVDRSSSTAYMELRSLSSEDTAVYYCARKGGGYVNWYFDVWGAGTTVTVSS
VL: DIQMNQSPSSLSASLGDTITITCHASQNINVWLSWYQQKPGNIPKLLIYKASNLHTGVPSRFSGSGSGTGFTLTISSLQPEDIATYYCQQGESYPYTFGGGTKLEIKR
Consider B2, for which the binding result is “binds”.

The record behind these values is patent CN117886935A.
